PubChem BioAssay AID1671190 (National Center for Advancing Translational Sciences (NCATS), 2021)
The campaign covered roughly 580,000 compounds. About 6,100 (1.1%) were called active. The shares of active, inactive and inconclusive entries below differ from those in the screen. Calls come from the whole dose curve; as a rule, active = well fitted inhibition curve with a large enough effect; inconclusive = small, poorly fitted or top-dose-only effect, or another doubt; inactive = no such curve, though single readings can be large or run the other way. Where the call is inconclusive, the potency comes from a doubtful curve fit.

Chains of the proteins cited; added tags and fusions are not shown. Lines headed by an entry give the natural chain unless they say otherwise; changes in a name come on top.
UniProt P18054: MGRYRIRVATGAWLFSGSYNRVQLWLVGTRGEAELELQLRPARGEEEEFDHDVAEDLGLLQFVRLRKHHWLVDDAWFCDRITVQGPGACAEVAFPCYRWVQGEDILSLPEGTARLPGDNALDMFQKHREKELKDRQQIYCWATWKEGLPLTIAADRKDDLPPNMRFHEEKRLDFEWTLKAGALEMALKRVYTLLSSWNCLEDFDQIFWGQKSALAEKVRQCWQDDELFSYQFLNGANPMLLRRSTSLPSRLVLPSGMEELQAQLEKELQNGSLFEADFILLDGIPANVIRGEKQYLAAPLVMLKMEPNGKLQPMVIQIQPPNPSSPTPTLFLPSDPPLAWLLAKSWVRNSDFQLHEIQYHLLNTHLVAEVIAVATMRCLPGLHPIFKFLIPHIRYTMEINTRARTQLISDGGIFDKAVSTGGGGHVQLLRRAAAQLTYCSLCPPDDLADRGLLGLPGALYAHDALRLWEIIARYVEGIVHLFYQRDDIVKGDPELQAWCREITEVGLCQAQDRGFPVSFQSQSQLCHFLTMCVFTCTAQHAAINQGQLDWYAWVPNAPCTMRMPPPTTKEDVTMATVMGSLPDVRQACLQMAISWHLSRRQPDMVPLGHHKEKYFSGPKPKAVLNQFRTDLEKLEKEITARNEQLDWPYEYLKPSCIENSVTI

target: Polyunsaturated fatty acid lipoxygenase ALOX12 (Homo sapiens) (UniProt P18054); experiment: Primary qHTS assay for inhibitors of human arachidonate 12S-lipoxygenase (ALOX12): Round 2; conditions: purified 12hLO, xylenol orange hydroperoxide absorbance; activity change, negative = inhibition: at 108 µM (top of the series) unless noted
Procedure, shortened: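 Hydroperoxide product was detected by ferrous iron/xylenol orange as the 573 to 405 nm absorbance ratio. Arachidonic acid at 40 uM (final) was turned over for 30 min at room temperature by 150 nM human 12hLO, pH 7.0 Hepes buffer, after 15 min compound preincubation.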
% is set by controls: 0 for no effect and ±100 for the full control effect; potency is the fitted concentration of half-maximal effect.

Compound	Potency	activity change, negative = inhibition
COc1cccc2cc(S(=O)(=O)c3ccc(Cl)cc3)c(=O)oc12	inconclusive: 141 µM [inhibitor, single point]	
COC[C@H]1C[C@@H](N(C)C)[C@H](O)[C@@H]1O	inconclusive: 20 µM [inhibitor, full curve, poor fit]	
CCCC(=O)Nc1sc2c(c1C(=O)OCC)CC(C)(C)OC2		inactive: -4.61%
O=C(CN1CCOCC1)N1C[C@@H](COCC2CC2)[C@H](c2ccccn2)C1		inactive: 40.8%
Cc1nc(CN2CCOC3(CCN([S+](=O)([O-])c4ccccc4C)CC3)C2=O)cs1	inconclusive: 126 µM [inhibitor, partial curve, poor fit]	
COCCOc1cc(-c2noc([C@@H]3CCCN3Cc3ccncc3)n2)ccn1	inconclusive: 3.55 µM [inhibitor, full curve, poor fit]	
Cc1cc(N2CCCCC2)nc2ccccc12		inactive: -15.5%
Cc1ccc(C(=O)NNC(=S)NC(=O)c2ccc(C(C)(C)C)cc2)cc1	inconclusive: 39.8 µM [inhibitor, partial curve, poor fit]	
CCc1ccc(S(=O)(=O)NCCc2csc(-c3ccccc3)n2)s1	inconclusive: 112 µM [inhibitor, single point]	
OC1CCN(c2c3c(nc4cc(-c5ccc(F)cc5)nn24)CCC3)CC1	inconclusive: 100 µM [inhibitor, single point]	
O=C(NCc1ccccc1)c1cc(C2COCCN2C(=O)C/C=C/c2ccccc2)on1 (stereo unspecified)	inconclusive: 79.4 µM [inhibitor, partial curve, poor fit]	
CCNC(=O)/C(C#N)=C/c1c(N2CCCCCC2)nc2ccccn2c1=O	inconclusive: 35.5 µM [inhibitor, single point]	
CCOCCn1c(=O)n(Cc2ncccn2)c2cc(C(=O)O)cnc21	inconclusive: 10 µM [inhibitor, partial curve]	
COc1ccc(CNC(=O)C2CCN(c3nnc(C)c4c(C)n(-c5ccc(C)cc5)nc34)CC2)cc1	inconclusive: 56.2 µM [inhibitor, partial curve, poor fit]	
CC(C)(O)C#Cc1ccc(C(=O)NCc2cccs2)s1		inactive: -24.9%
COC(=O)C1=C(C)NC(=O)CC1c1ccccc1F (stereo unspecified)		inactive: 1.21%
COc1cccc(OC)c1C(=O)N1CCN(Cc2ccccc2F)CC1	inconclusive: 1.12 µM [inhibitor, full curve]	
COc1ccc(OC)c(-c2cc(C(=O)NCc3ccc(Cl)cc3)no2)c1		inconclusive: -32.6% [inhibitor]
Cc1ccc(-c2nn3c(C)nnc3c3ccccc23)cc1S(=O)(=O)NC(C)(C)CO	inactive	
CCOC(=O)C1=C(CNCc2ccc(C)cc2)NC(=O)NC1c1ccc(Cl)cc1 (stereo unspecified)	inconclusive: 28.2 µM [inhibitor, partial curve, poor fit]	
COc1ccc(CCNC(=O)Cc2ccccc2)cc1OC	inconclusive: 1.78 µM [inhibitor, partial curve, poor fit]	
O=C(O)c1ccc(CNCCc2c[nH]c3ccccc23)cc1	inconclusive: 31.6 µM [inhibitor, partial curve, poor fit]	

Compound	Potency	activity change, negative = inhibition
Cc1cc(CN(C)c2cc(C3CC(O)C3)ncn2)n[nH]1 (stereo unspecified)		inactive: 31.9%
CCOC(=O)CCCC(=O)Nc1ncnc2c1C(c1ccccc1)c1c(ccc3ccccc13)O2 (stereo unspecified)		inactive: -5.03%
O=C(COC(=O)c1ccc[nH]c1=O)Nc1ccc2c(c1)OC(F)(F)O2	inconclusive: 20 µM [inhibitor, full curve, poor fit]	
CCn1cnc2c1c(=O)n(CC(=O)Nc1ccc3c(c1)OCCO3)c(=O)n2Cc1ccccc1	inconclusive: 141 µM [inhibitor, partial curve, poor fit]	
O=C(COc1ccccc1Br)Nc1ccc2c(c1)OCCCO2		inactive: -10.5%
O=C(O)c1c2c(nc3ccc(S(=O)(=O)N4CCC(C(=O)NC5CCCCCC5)CC4)cc13)CCCC2	inconclusive: 56.2 µM [inhibitor, partial curve, poor fit]	
CCCC(C)NC(=O)COC(=O)CCS(=O)(=O)c1ccc(C)cc1 (stereo unspecified)		inactive: -25.2%
CNC(=O)OCc1cccc(COC(=O)NC)n1	inconclusive: 35.5 µM [inhibitor, partial curve]	
Cc1ncsc1C(=O)NCc1ccc(N2CCC(C)CC2)nc1	inconclusive: 89.1 µM [inhibitor, single point]	
COc1ccccc1C(CC(=O)NCC(C)C)c1cn(C)c2ccccc12 (stereo unspecified)		inactive: 35.5%
CC(OC(=O)c1cc2ccccc2[nH]1)C(=O)NC1CC1 (stereo unspecified)		inactive: -23.3%
CC(OC(=O)c1ccc(Cl)nc1)C(=O)N1CCc2ccccc21 (stereo unspecified)		inconclusive: -34.6% [inhibitor]
O=C(Nc1nc(-c2ccco2)c(-c2ccco2)s1)c1cnccn1	inconclusive: 31.6 µM [inhibitor, partial curve]	
Cc1c(Cl)cccc1NC(=O)Cn1cnc(S(=O)(=O)N2CCOCC2)c1		inactive: -0.878%
CNn1cnc2ccsc2c1=O	inconclusive: 100 µM [inhibitor, partial curve, poor fit]	
COc1cccc(/C=C2\SC(=S)N(NS(=O)(=O)c3ccc(C)cc3)C2=O)c1OC	inconclusive: 22.4 µM [inhibitor, partial curve, poor fit]	
COc1ccc(-c2cc3ccc(OC(C)=O)cc3oc2=O)cc1		inactive: -1.48%
CC(C)C[C@@H]1CN=C(N)N1C[C@@H]1CCCN1C[C@H](C)N1C[C@@H](Cc2ccccc2)N(CCCC2CCCC2)C1=N	inconclusive: 112 µM [inhibitor, single point]	
CN(C)CCCOc1ccc(-c2cc3nc(NCc4cccnc4)n(C)c(=O)c3s2)cn1		inactive: 3.35%
COc1ccc(-c2ncncc2-c2csc(C)n2)c(O)c1	inconclusive: 35.5 µM [inhibitor, partial curve, poor fit]	
Cc1cc(C)n2nc(N(Cc3cccc(C#N)c3)S(=O)(=O)c3ccccc3)nc2n1	inconclusive: 141 µM [inhibitor, partial curve, poor fit]	
CCn1c(=O)c2c3c(sc2n(C)c1=O)CCC3	inconclusive: 31.6 µM [inhibitor, partial curve, poor fit]	

Compound	Potency	activity change, negative = inhibition
CCOC(=O)CNC(=O)CNC(=O)Cn1ccc2ccccc2c1=O		inactive: 1.03%
Nc1nc(SCc2ccccc2Cl)[nH]c(=O)c1-c1ccccc1	inconclusive: 89.1 µM [inhibitor, partial curve, poor fit]	
Cc1c(Cc2ccc3c(c2)OCO3)sc(NC(=O)c2cccc3ccccc23)c1C(N)=O	inconclusive: 44.7 µM [inhibitor, partial curve, poor fit]	
CCN(C(=O)CCl)C1CCCCC1	inconclusive: 0.794 µM [inhibitor, full curve, poor fit]	
CC(C)CN1C(=O)C(=O)N(CC(=O)Nc2cc(Cl)ccc2Oc2ccccc2)C1=O		inactive: -3.1%
CCOc1ccc(C(=O)Nc2ccc(N3CCN(C)CC3)cc2)cc1[N+](=O)[O-]	inconclusive: 89.1 µM [inhibitor, partial curve, poor fit]	
CN(C)C(=O)CSc1nnc(CCCCCNC(=O)OC(C)(C)C)o1	inconclusive: 56.2 µM [inhibitor, partial curve, poor fit]	
Cc1ccc(NCc2ccncc2)c(Br)c1	inconclusive: 1.12 µM [inhibitor, full curve]	
O=C(Nc1ccc(C(F)(F)F)cc1)C1(c2cccs2)CCOCC1	inconclusive: 0.501 µM [inhibitor, full curve, poor fit]	
CC(=O)c1ccc(Nc2nc(-c3ccccc3)nc3ccccc23)cc1	inconclusive: 70.8 µM [inhibitor, partial curve, poor fit]	
CN(CC(=O)Nc1cccc(F)c1)C(=O)c1cccc(S(=O)(=O)N2CCN(c3ccccc3)CC2)c1		inactive: 184%
CCOC(=O)C1CC(=O)c2ccccc2C1c1ccccc1 (stereo unspecified)	inconclusive: 56.2 µM [inhibitor, partial curve, poor fit]	
O=C1Cc2c([nH]c3ccc([N+](=O)[O-])cc23)-c2ccccc2N1	inconclusive: 158 µM [inhibitor, partial curve, poor fit]	
O=C(O)C(c1c[nH]c2ccc(Cl)cc12)N1CCN(CCOc2ccc(Cl)cc2)CC1 (stereo unspecified)	inconclusive: 50.1 µM [inhibitor, partial curve, poor fit]	
CC(C)CNc1nc(-c2ccc3c(c2)NC(=O)CO3)cs1	inconclusive: 35.5 µM [inhibitor, partial curve]	
Cc1ccc(S(=O)(=O)CCC(=O)Nc2ccccc2N2CCCC2)cc1	inconclusive: 79.4 µM [inhibitor, single point]	
Cc1cccc(NC(=S)N/N=C/c2cccn2Cc2ccc(F)cc2)c1	inconclusive: 44.7 µM [inhibitor, partial curve, poor fit]	
c1ccc(CNc2ncncc2-c2ccc3c(c2)OCO3)cc1	active: 25.1 µM	
CN(c1ccc(O)cc1)S(=O)(=O)c1ccc2ccccc2c1	inconclusive: 126 µM [inhibitor, partial curve, poor fit]	
CCCCCCn1c(=O)n2n(c1=O)C[C@]1(OC(=O)Nc3cccs3)CN(S(=O)(=O)c3ccc(C)cc3)C[C@]1(O)C2	active: 35.5 µM	
O=C(c1ccncc1)N1CCN(C2CCCCC2)CC1	inconclusive: 1.26 µM [inhibitor, full curve, poor fit]	
Cc1cc(C)c(NS(=O)(=O)c2cccc(C(F)(F)F)c2)c(C)c1	inconclusive: 100 µM [inhibitor, partial curve, poor fit]	

Some of these compounds in order of SMILES length, smallest number first:
Compound	Potency	activity change, negative = inhibition
CCOCCn1c(=O)n(Cc2ncccn2)c2cc(C(=O)O)cnc21	inconclusive: 10 µM [inhibitor, partial curve]	
CCOC(=O)C1=C(CNCc2ccc(C)cc2)NC(=O)NC1c1ccc(Cl)cc1 (stereo unspecified)	inconclusive: 28.2 µM [inhibitor, partial curve, poor fit]	
O=C(CN1CCOCC1)N1C[C@@H](COCC2CC2)[C@H](c2ccccn2)C1		inactive: 40.8%
